# Data from US20250281653A1, “METHODS FOR TREATING PROSTATE CANCER WITH RADIOPHARMACEUTICALS” (ARTBIO, Inc., priority 2024, published 2025).
# “And” between values parts separate entries of the source, which are not always exact repeats. Equal entries are not always repeated. For some assays here: Part of at least one peptide drawing is inferred or uncertain, most often the ends. For some assays here: At least one compound was matched to its structure with a doubt left.
# Experiments:
# [1] = test system: PC3 or PC3-PIP prostate cancer cells; assay: Experimental metastasis model of prostate cancer (intracardiac injection of PC3 or PC3-PIP cells); assay type: in vivo; settings: mice; expected
# [2] = Baseline F18-PSMA-PET/CT: metastatic lesion evaluation; assay type: in vivo, human; parameters: key: 1: Equal to or above blood pool and lower than liver; 2: Equal to or above liver and lower than parotid gland; 3: Equal to or above parotid gland; settings: screening; individual bone, visceral and lymph node lesions of 3 participants
structure (smiles),measurement,setting,value
"NC(=O)CN1CCN(CC(N)=O)CCN(CC(N)=O)C(Cc2ccc(NC(=S)NC[C@H]3CC[C@H](C(=O)N[C@@H](Cc4ccc5ccccc5c4)C(=O)NCCCC[C@H](NC(=O)N[C@@H](CCC(=O)O)C(=O)O)C(=O)O)CC3)cc2)CN(CC(N)=O)CC1 (some centres unmarked) [^212Pb-Compound 1, metal not drawn]",Prevention or reduction of metastases relative to non-^212Pb radiopharmaceuticals such as ^177Lu-PSMA-617,[1],to a greater extent
O=C(O)CC[C@H](NC(=O)N[C@@H](CCCCNC(=O)[C@H](Cc1ccc2ccccc2c1)NC(=O)c1ccc(CNC(=O)[C@H](CCC(=O)O)NC(=O)[C@H](CCC(=O)O)NC(=O)c2ccc([18F])nc2)cc1)C(=O)O)C(=O)O [Compound F18-PSMA-PET],"EANM PSMA-PET score, metastatic lesion",[2],1 = Equal to or above blood pool (2×) and 2 = Equal to or above liver and (5×) and 3 = Equal to or above parotid gland (2×)
